Results taken from publication PMC7879635.
No constants are given. Whether binding was seen depends on the method and setting. In cells and extracts the contact can be indirect. Some results given as binding are weak or reduced against the parent protein; the word gives no strength.

The chains behind the UniProt entries cited, without tags or fusion partners. Residues count along the entry.
UniProt P35739, residues 33-799: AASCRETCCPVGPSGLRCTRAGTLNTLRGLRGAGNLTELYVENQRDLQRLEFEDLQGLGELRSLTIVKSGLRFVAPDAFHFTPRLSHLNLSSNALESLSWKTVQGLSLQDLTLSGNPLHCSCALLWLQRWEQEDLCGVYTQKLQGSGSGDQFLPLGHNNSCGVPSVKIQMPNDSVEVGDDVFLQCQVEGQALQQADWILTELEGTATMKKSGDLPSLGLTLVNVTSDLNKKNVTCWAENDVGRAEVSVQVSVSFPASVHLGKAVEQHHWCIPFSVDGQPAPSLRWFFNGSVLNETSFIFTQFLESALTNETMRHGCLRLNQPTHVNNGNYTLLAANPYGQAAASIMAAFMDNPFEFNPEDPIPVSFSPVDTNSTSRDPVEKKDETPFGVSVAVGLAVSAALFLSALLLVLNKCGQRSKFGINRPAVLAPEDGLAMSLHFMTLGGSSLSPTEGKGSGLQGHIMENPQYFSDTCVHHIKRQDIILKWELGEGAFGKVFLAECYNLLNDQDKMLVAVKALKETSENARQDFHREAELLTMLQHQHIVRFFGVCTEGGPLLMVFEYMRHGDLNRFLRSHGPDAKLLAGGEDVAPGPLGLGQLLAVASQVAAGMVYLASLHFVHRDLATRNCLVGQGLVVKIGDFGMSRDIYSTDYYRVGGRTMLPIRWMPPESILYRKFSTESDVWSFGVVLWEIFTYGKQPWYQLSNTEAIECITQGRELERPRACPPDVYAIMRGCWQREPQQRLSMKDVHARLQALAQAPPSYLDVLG
UniProt Q8K4S7: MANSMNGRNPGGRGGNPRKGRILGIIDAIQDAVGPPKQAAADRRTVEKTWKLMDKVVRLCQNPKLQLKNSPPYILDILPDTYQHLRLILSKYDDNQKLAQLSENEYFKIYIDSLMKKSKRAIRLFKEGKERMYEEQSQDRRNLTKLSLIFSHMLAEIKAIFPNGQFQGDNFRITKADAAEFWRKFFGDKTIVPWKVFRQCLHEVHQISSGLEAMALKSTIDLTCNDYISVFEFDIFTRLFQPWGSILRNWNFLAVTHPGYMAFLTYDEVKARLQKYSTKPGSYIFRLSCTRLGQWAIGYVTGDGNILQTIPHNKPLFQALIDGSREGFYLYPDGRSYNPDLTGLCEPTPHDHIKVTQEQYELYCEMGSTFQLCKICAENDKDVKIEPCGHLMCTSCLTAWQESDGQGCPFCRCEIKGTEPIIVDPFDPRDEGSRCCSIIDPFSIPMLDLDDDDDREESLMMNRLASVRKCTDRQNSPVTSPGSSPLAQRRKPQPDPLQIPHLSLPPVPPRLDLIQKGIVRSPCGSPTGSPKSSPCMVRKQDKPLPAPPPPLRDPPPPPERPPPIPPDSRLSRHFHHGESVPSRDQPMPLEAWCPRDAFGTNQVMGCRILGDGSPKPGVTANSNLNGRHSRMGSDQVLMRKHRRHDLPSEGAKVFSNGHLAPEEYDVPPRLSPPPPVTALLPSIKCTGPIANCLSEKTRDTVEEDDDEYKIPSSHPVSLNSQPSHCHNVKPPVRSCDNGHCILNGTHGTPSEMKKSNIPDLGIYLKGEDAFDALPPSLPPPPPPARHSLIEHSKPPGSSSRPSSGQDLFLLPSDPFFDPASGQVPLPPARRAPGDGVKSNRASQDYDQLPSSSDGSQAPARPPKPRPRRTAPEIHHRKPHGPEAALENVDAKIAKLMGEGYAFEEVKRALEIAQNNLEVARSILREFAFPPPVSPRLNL

Target: TrkA (rat (endogenous in PC12)) (UniProt P35739)
Assay: co-IP; precipitation with a primary antibody against TrkA from PC12 cells with knockdown or overexpression of Cblb or Cbl; Cblb and Cbl detected by western blot

- binding: binds
Substance: Cblb (from UniProt Q8K4S7 1-938) (enzyme)
